PubChem BioAssay AID504774, Drosophila RNAi Screening Center | 2011
Purpose: 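Knock-downs that shift viability of MMS-exposed cells relative to untreated ones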 (primary screen). Cells: Drosophila Kc167 cells. Knock-down reagent: long dsRNA against Drosophila genes, about 0.25 µg dsRNA per well. Duration: about 6 days: 3 days knock-down, then 3 days with or without MMS. Conditions: methyl methanesulphonate 0.004% (w/v) for 3 days after knock-down. Read-out: 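Viability in wells given MMS, read as ATP luminescence, normalised by quantiles plate by plate and averaged across replicates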. Reading the numbers: mean viability with MMS and viability with MMS: higher = more surviving cells after MMS.
The screen tested about 23,000 reagents; shown is a random part of those with a known target gene and a result. 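Values are quantile-normalised luminescence on an arbitrary scale; higher means more cells surviving MMS.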 The numbers tell different reagents against one gene apart. A plus sign joins genes that one reagent is predicted to hit.

Gene | reagent no. | mean viability with MMS | viability with MMS, replicate 1 | viability with MMS, replicate 2
CG5342 | 1 | 3.69e6 | 4.17e6 | 4.08e6
Grl62c (Gustatory receptor-like 62c) | 1 | 3.65e6 | 4.17e6 | 4.09e6
Ork1 (Open rectifier K[+] channel 1) | 1 | 3.62e6 | 4.21e6 | 3.93e6
CG34315 + Orc3 | 1 | 3.22e6 | 3.70e6 | 3.69e6
Nxf3 (Nuclear export factor 3) | 1 | 3.44e6 | 3.90e6 | 3.95e6
Tsp42Eg (Tetraspanin 42Eg) | 1 | 3.66e6 | 4.02e6 | 4.25e6
Flo1 (Flotillin 1) | 1 | 3.67e6 | 4.18e6 | 4.14e6
HtrA2 (HTRA2-related serine protease) | 1 | 3.70e6 | 4.19e6 | 4.22e6
CHOp24 | 1 | 3.50e6 | 3.87e6 | 4.07e6
Irbp18 (Inverted repeat binding protein 18 kDa) | 1 | 3.41e6 | 3.87e6 | 3.83e6
Pig1 (Pre-intermoult gene 1) | 1 | 3.43e6 | 3.94e6 | 3.86e6
CG16813 | 1 | 3.62e6 | 4.05e6 | 4.14e6
atos (atossa) | 1 | 3.51e6 | 4.02e6 | 4.00e6
CG33992 (retired record) + CG43755 | 1 | 3.52e6 | 4.15e6 | 3.85e6
ca (claret) | 1 | 3.65e6 | 4.06e6 | 4.18e6
ca (claret) | 2 | 3.70e6 | 4.19e6 | 4.18e6
ca (claret) | 3 | 3.52e6 | 4.10e6 | 3.85e6
CG14448 | 1 | 3.61e6 | 4.10e6 | 4.08e6
dtr (defective transmitter release) | 1 | 3.54e6 | 4.02e6 | 3.99e6
Pms2 | 1 | 3.45e6 | 4.03e6 | 3.79e6
CG13551 | 1 | 3.41e6 | 3.99e6 | 3.82e6
CG1582 | 1 | 3.73e6 | 4.27e6 | 4.24e6
l(3)L1231 (lethal (3) L1231) | 1 | 3.58e6 | 4.21e6 | 3.94e6
Syn2 (Syntrophin-like 2) | 1 | 3.69e6 | 4.20e6 | 4.14e6
DCTN6-p27 (Dynactin 6, p27 subunit) | 1 | 3.64e6 | 3.88e6 | 3.90e6
DCTN6-p27 (Dynactin 6, p27 subunit) | 2 | 3.42e6 | 3.92e6 | 3.90e6
CG14355 | 1 | 3.58e6 | 4.13e6 | 4.01e6
RpL3 + CG6693 | 1 | 3.46e6 | 3.87e6 | 3.94e6
CG31207 | 1 | 3.64e6 | 4.13e6 | 4.05e6
CHMP2B (Charged multivesicular body protein 2b) | 1 | 3.47e6 | 3.96e6 | 3.90e6
CG1789 | 1 | 3.53e6 | 3.82e6 | 4.05e6
CG32829 | 1 | 3.33e6 | 3.81e6 | 3.75e6
CG32829 | 2 | 3.22e6 | 3.83e6 | 3.74e6
CG30268 | 1 | 3.46e6 | 4.00e6 | 3.87e6
Nuf2 | 1 | 3.36e6 | 3.55e6 | 3.94e6
Ndc80 | 1 | 3.35e6 | 3.69e6 | 4.06e6
Ndc80 | 2 | 3.01e6 | 3.67e6 | 3.73e6
CG7924 | 1 | 3.71e6 | 4.25e6 | 4.09e6
Hsp70Aa + Hsp70Ab | 1 | 3.34e6 | 3.78e6 | 3.79e6
CG30259 | 1 | 3.62e6 | 4.04e6 | 4.17e6
CG30259 | 2 | 3.80e6 | 4.05e6 | 4.50e6
gbb (glass bottom boat) | 1 | 3.42e6 | 3.89e6 | 3.85e6
EndoB (Endophilin B) | 1 | 3.39e6 | 3.76e6 | 3.88e6
Cdk7 (Cyclin-dependent kinase 7) | 1 | 3.45e6 | 3.86e6 | 3.98e6
Cdk7 (Cyclin-dependent kinase 7) | 2 | 3.62e6 | 4.07e6 | 4.14e6
mip120 (Myb-interacting protein 120) | 1 | 3.64e6 | 4.01e6 | 4.11e6
flz (filzig) | 1 | 3.60e6 | 4.10e6 | 4.03e6
CG34302 | 1 | 3.48e6 | 4.02e6 | 3.90e6
CG16824 | 1 | 3.37e6 | 3.73e6 | 3.89e6
CG4658 | 1 | 3.35e6 | 3.66e6 | 3.88e6
Calx (Na/Ca-exchange protein) | 1 | 3.49e6 | 3.95e6 | 3.97e6
Calx (Na/Ca-exchange protein) | 2 | 3.72e6 | 4.15e6 | 4.18e6
Calx (Na/Ca-exchange protein) | 3 | 3.53e6 | 4.11e6 | 3.90e6
Calx (Na/Ca-exchange protein) | 4 | 3.51e6 | 4.04e6 | 3.93e6
CG12204 | 1 | 3.64e6 | 4.21e6 | 4.08e6
U3-55K (U3 small nuclear riboprotein factor 55K) | 1 | 3.44e6 | 3.79e6 | 3.93e6
Crk (Crk oncogene) | 1 | 3.56e6 | 4.10e6 | 3.98e6
CG5721 | 1 | 3.47e6 | 3.88e6 | 3.97e6
CG34166 | 1 | 1.92e6 | 4.10e6 | 4.06e6
CG9673 | 1 | 3.56e6 | 4.06e6 | 4.02e6
Ilp5 (Insulin-like peptide 5) | 1 | 3.84e6 | 4.20e6 | 4.29e6
mwh (multiple wing hairs) | 1 | 3.61e6 | 4.17e6 | 3.98e6
CG17364 | 1 | 3.38e6 | 3.76e6 | 3.83e6
CG17364 | 2 | 3.33e6 | 4.16e6 | 4.13e6
CG17364 | 3 | 3.65e6 | 4.12e6 | 4.09e6
CG30467 | 1 | 3.38e6 | 3.94e6 | 3.84e6
bam (bag of marbles) | 1 | 3.60e6 | 4.05e6 | 4.12e6
Uba4 (Ubiquitin-like activating enzyme 4) | 1 | 3.44e6 | 3.95e6 | 3.83e6
CG14659 | 1 | 3.44e6 | 3.95e6 | 3.81e6
CG18507 | 1 | 3.48e6 | 3.91e6 | 3.98e6
CG18507 | 2 | 3.64e6 | 4.17e6 | 4.04e6
Rat1 (Rat1 5'-3' exoribonuclease) | 1 | 3.44e6 | 3.90e6 | 3.81e6
Ir7d (Ionotropic receptor 7d) | 1 | 3.46e6 | 3.72e6 | 4.14e6
CG13510 | 1 | 3.85e6 | 4.33e6 | 4.26e6
CG18542 + CG32939 | 1 | 3.72e6 | 4.25e6 | 4.20e6
CG14715 | 1 | 3.66e6 | 4.20e6 | 4.14e6
dpy (dumpy) | 1 | 3.51e6 | 4.10e6 | 3.88e6
dpy (dumpy) | 2 | 3.40e6 | 4.00e6 | 3.76e6
dpy (dumpy) | 3 | 3.70e6 | 4.12e6 | 4.19e6
Chchd2 (Coiled-coil-helix-coiled-coil-helix domain containing 2) | 1 | 3.54e6 | 3.98e6 | 4.05e6
CG14115 | 1 | 3.65e6 | 4.04e6 | 4.19e6
Mgat4b | 1 | 3.56e6 | 4.14e6 | 3.93e6
CG17124 | 1 | 3.73e6 | 4.37e6 | 4.08e6
CG34384 | 1 | 3.67e6 | 4.15e6 | 4.10e6
CG34384 | 2 | 3.55e6 | 4.00e6 | 4.06e6
CG34384 | 3 | 3.53e6 | 3.95e6 | 4.07e6
CG34384 | 4 | 3.62e6 | 4.09e6 | 4.10e6
